# Measurements taken from the supplement of paper PMC8728848.
# The other results are listed elsewhere or left out.
# B1: Erv41-EDTA (Saccharomyces cerevisiae), Q04651 (protein)
# chain: MKFLVNVALVFMVVYISYIYAAAPEHHHHHHDYDIPTTENLYFQGAMGYIDQQYVVDSQVRDTVQINMDIYVNTKCDWLQINVRDQTMDRKLVLEELQLEEMPFFIPYDTKVNDINEIITPELDEILGEAIPAEFREKLDTRSFFDESDPNKAHLPEFNGCHVFGSIPVNRVSGELQITAKSLGYVASRKAPLEELKFNHVINEFSFGDFYPYIDNPLDNTAQFNQDEPLTTYVYYTSVVPTLFKKLGAEVDTNQYSVNDYRYLYKDVAAKGDKMPGIFFKYNFEPLSIVVSDVRL
# Experiments:
# Experiment in all cases: glycan array binding signal (z-score within array); higher = stronger binding
# Conditions in all cases: glycan notation: IUPAC condensed, linker removed
# Gal(a1-6)Glc = target: Gal(a1-6)Glc
# Outline: (§1)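 The binding signal is a Z-score computed within each array and averaged over linkers. Arrays of the same protein sequence at different concentrations or buffers were also averaged together. Data originate from 3228 arrays in the Consortium for Functional Glycomics database, kept only where the protein sequence was available.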
# Gal(b1-2)Gal = target: Gal(b1-2)Gal
# Outline: as §1
# Gal(b1-3)Gal = target: Gal(b1-3)Gal
# Outline: as §1
# Gal(b1-3)Gal(b1-4)GlcNAc = target: Gal(b1-3)Gal(b1-4)GlcNAc
# Outline: as §1
# Gal(b1-3)GalNAc = target: Gal(b1-3)GalNAc
# Outline: as §1
# [1] = target: Gal(b1-3)GalNAc(a1-3)[Fuc(a1-2)]Gal(b1-4)Glc
# Outline: as §1
# [2] = target: Gal(b1-3)GalNAc(a1-3)[Fuc(a1-2)]Gal(b1-4)GlcNAc
# Outline: as §1
# Gal(b1-3)GalNAc(b1-3)Gal = target: Gal(b1-3)GalNAc(b1-3)Gal
# Outline: as §1
# [3] = target: Gal(b1-3)GalNAc(b1-3)Gal(a1-4)Gal(b1-4)Glc
# Outline: as §1
# [4] = target: Gal(b1-3)GalNAc(b1-4)Gal(b1-4)Glc
# Outline: as §1
# [5] = target: Gal(b1-3)GalNAc(b1-4)[Neu5Ac(a2-3)]Gal(b1-4)Glc
# Outline: as §1
# Gal(b1-3)GlcNAc = target: Gal(b1-3)GlcNAc
# Outline: as §1
# [6] = target: Gal(b1-3)GlcNAc(a1-3)Gal(b1-4)GlcNAc
# Outline: as §1
# [7] = target: Gal(b1-3)GlcNAc(a1-6)Gal(b1-4)GlcNAc
# Outline: as §1
# Gal(b1-3)GlcNAc(b1-2)Man = target: Gal(b1-3)GlcNAc(b1-2)Man
# Outline: as §1
# [8] = target: Gal(b1-3)GlcNAc(b1-2)Man(a1-3)[Gal(b1-3)GlcNAc(b1-2)Man(a1-6)]Man(b1-4)GlcNAc(b1-4)GlcNAc
# Outline: as §1
# [9] = target: Gal(b1-3)GlcNAc(b1-2)Man(a1-3)[Gal(b1-3)GlcNAc(b1-2)Man(a1-6)]Man(b1-4)GlcNAc(b1-4)[Fuc(a1-6)]GlcNAc
# Outline: as §1
# [10] = target: Gal(b1-3)GlcNAc(b1-2)Man(a1-3)[GlcNAc(b1-4)][Gal(b1-3)GlcNAc(b1-2)Man(a1-6)]Man(b1-4)GlcNAc(b1-4)GlcNAc
# Outline: as §1
# [11] = target: Gal(b1-3)GlcNAc(b1-2)[Gal(b1-3)GlcNAc(b1-6)]Man(a1-6)[Gal(b1-3)GlcNAc(b1-2)Man(a1-3)]Man(b1-4)GlcNAc(b1-4)GlcNAc
# Outline: as §1
# [12] = target: Gal(b1-3)GlcNAc(b1-3)Gal(b1-3)GlcNAc
# Outline: as §1
# [13] = target: Gal(b1-3)GlcNAc(b1-3)Gal(b1-4)Glc
# Outline: as §1
# [14] = target: Gal(b1-3)GlcNAc(b1-3)Gal(b1-4)GlcNAc
# Outline: as §1
# [15] = target: Gal(b1-3)GlcNAc(b1-3)Gal(b1-4)GlcNAc(b1-2)Man(a1-3)[Gal(b1-3)GlcNAc(b1-3)Gal(b1-4)GlcNAc(b1-2)Man(a1-6)]Man(b1-4)GlcNAc(b1-4)GlcNAc
# Outline: as §1
# [16] = target: Gal(b1-3)GlcNAc(b1-3)Gal(b1-4)GlcNAc(b1-2)[Gal(b1-3)GlcNAc(b1-3)Gal(b1-4)GlcNAc(b1-6)]Man(a1-6)[Gal(b1-3)GlcNAc(b1-3)Gal(b1-4)GlcNAc(b1-2)Man(a1-3)]Man(b1-4)GlcNAc(b1-4)[Fuc(a1-6)]GlcNAc
# Outline: as §1
# [17] = target: Gal(b1-3)GlcNAc(b1-3)Gal(b1-4)GlcNAc(b1-3)Gal(b1-4)GlcNAc(b1-2)[Gal(b1-3)GlcNAc(b1-3)Gal(b1-4)GlcNAc(b1-3)Gal(b1-4)GlcNAc(b1-6)]Man(a1-6)[Gal(b1-3)GlcNAc(b1-3)Gal(b1-4)GlcNAc(b1-3)Gal(b1-4)GlcNAc(b1-2)Man(a1-3)]Man(b1-4)GlcNAc(b1-4)[Fuc(a1-6)]GlcNAc
# Outline: as §1
# [18] = target: Gal(b1-3)GlcNAc(b1-3)Gal(b1-4)GlcNAc(b1-6)[Gal(b1-3)GlcNAc(b1-3)]Gal(b1-4)Glc
# Outline: as §1
# [19] = target: Gal(b1-3)GlcNAc(b1-3)Gal(b1-4)[Fuc(a1-3)]GlcNAc
# Outline: as §1
# [20] = target: Gal(b1-3)GlcNAc(b1-3)Gal(b1-4)[Fuc(a1-3)]GlcNAc(b1-6)[Gal(b1-3)GlcNAc(b1-3)]Gal(b1-4)Glc
# Outline: as §1
# [21] = target: Gal(b1-3)GlcNAc(b1-3)GalNAc
# Outline: as §1
# [22] = target: Gal(b1-3)GlcNAc(b1-6)Gal(b1-4)GlcNAc
# Outline: as §1
# [23] = target: Gal(b1-3)GlcNAc(b1-6)GalNAc
# Outline: as §1
# [24] = target: Gal(b1-3)GlcNAc(b1-6)[Gal(b1-3)]GalNAc
# Outline: as §1
# Gal(b1-3)GlcNAc6S = target: Gal(b1-3)GlcNAc6S
# Outline: as §1
# [25] = target: Gal(b1-3)[Fuc(a1-4)]GlcNAc
# Outline: as §1
# [26] = target: Gal(b1-3)[Fuc(a1-4)]GlcNAc(b1-2)Man
# Outline: as §1
# [27] = target: Gal(b1-3)[Fuc(a1-4)]GlcNAc(b1-2)Man(a1-3)[Gal(b1-3)[Fuc(a1-4)]GlcNAc(b1-2)Man(a1-6)]Man(b1-4)GlcNAc(b1-4)[Fuc(a1-6)]GlcNAc
# Outline: as §1
# [28] = target: Gal(b1-3)[Fuc(a1-4)]GlcNAc(b1-3)Gal(b1-3)[Fuc(a1-4)]GlcNAc
# Outline: as §1
binder,measurement,setting,value
B1,glycan array binding signal (z-score),Gal(a1-6)Glc,-0.073
same,glycan array binding signal (z-score),Gal(b1-2)Gal,-1.22
same,glycan array binding signal (z-score),Gal(b1-3)Gal,-0.128
same,glycan array binding signal (z-score),Gal(b1-3)Gal(b1-4)GlcNAc,0.071
same,glycan array binding signal (z-score),Gal(b1-3)GalNAc,-0.207
same,glycan array binding signal (z-score),[1],-0.437
same,glycan array binding signal (z-score),[2],-0.134
same,glycan array binding signal (z-score),Gal(b1-3)GalNAc(b1-3)Gal,0.313
same,glycan array binding signal (z-score),[3],1.08
same,glycan array binding signal (z-score),[4],0.117
same,glycan array binding signal (z-score),[5],0.526
same,glycan array binding signal (z-score),Gal(b1-3)GlcNAc,0.332
same,glycan array binding signal (z-score),[6],0.101
same,glycan array binding signal (z-score),[7],0.822
same,glycan array binding signal (z-score),Gal(b1-3)GlcNAc(b1-2)Man,1.05
same,glycan array binding signal (z-score),[8],0.323
same,glycan array binding signal (z-score),[9],0.285
same,glycan array binding signal (z-score),[10],0.595
same,glycan array binding signal (z-score),[11],-0.849
same,glycan array binding signal (z-score),[12],-0.351
same,glycan array binding signal (z-score),[13],-0.747
same,glycan array binding signal (z-score),[14],-0.105
same,glycan array binding signal (z-score),[15],0.685
same,glycan array binding signal (z-score),[16],1.14
same,glycan array binding signal (z-score),[17],1.31
same,glycan array binding signal (z-score),[18],0.268
same,glycan array binding signal (z-score),[19],-1.54
same,glycan array binding signal (z-score),[20],-0.042
same,glycan array binding signal (z-score),[21],-0.47
same,glycan array binding signal (z-score),[22],0.559
same,glycan array binding signal (z-score),[23],0.183
same,glycan array binding signal (z-score),[24],-0.857
same,glycan array binding signal (z-score),Gal(b1-3)GlcNAc6S,-0.163
same,glycan array binding signal (z-score),[25],0.199
same,glycan array binding signal (z-score),[26],-0.743
same,glycan array binding signal (z-score),[27],0.503
same,glycan array binding signal (z-score),[28],-0.815

# Rewritten as tab-separated lines: part of the list above.
binder	measurement	setting	value
B1	glycan array binding signal (z-score)	Gal(b1-3)GlcNAc(b1-2)Man	1.05
same	glycan array binding signal (z-score)	[8]	0.323
